For 32 molecules, drug sensitivity score results are on record in the supplement of paper PMC12593923.

Structures can show the parent of a compound that is named as a salt. Several reference drugs read as weak here; read low effects with care.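 All three lines are high-grade serous ovarian cancer cells differing in chemosensitivity, with OVCAR3 described as the chemosensitive one. Toxicity was scaled between DMSO vehicle wells and fully lysed wells, the score derives from a fitted multi-dose response curve, and the authors counted a score above 5 as drug sensitivity.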

Test systems include Kuramochi; OVCAR4; OVCAR3.
What all share (assay): drug sensitivity score (DSS2, cytotoxicity, CellTox Green); higher = more cytotoxic / more sensitive; extreme values may be limits of the assay
Conditions in all cases: 72 h; doses 0.5, 1, 5 µM

With `CCc1c2c(nc3ccc(OC(=O)N4CCC(N5CCCCC5)CC4)cc13)-c1cc3c(c(=O)n1C2)COC(=O)[C@]3(O)CC` [Irinotecan (hydrochloride trihydrate)], the drug sensitivity score with Kuramochi, with OVCAR4 and in the assay with OVCAR3 was 0 DSS each time.
As to `CC(C)(C)C[C@@H]1N[C@@H](C(=O)N[C@H]2CC[C@H](O)CC2)[C@H](c2cccc(Cl)c2F)[C@]12C(=O)Nc1cc(Cl)ccc12` [MI-773], the drug sensitivity score with Kuramochi, in the assay on OVCAR4 and with OVCAR3 was 0 DSS in each case.
Turning to `N=C(N)Nc1ccc(C(=O)Oc2ccc3cc(C(=N)N)ccc3c2)cc1` [Nafamostat (mesylate)], the drug sensitivity score in the assay with Kuramochi, with OVCAR4 and with OVCAR3 was 0 DSS in each case.
Take `C/C=C(\C)C(=O)O[C@H]1[C@H](OC(C)=O)[C@]2(CO)[C@H](O)C[C@]3(C)C(=CC[C@@H]4[C@@]5(C)CC[C@H](O[C@@H]6O[C@H](C(=O)O)[C@@H](O[C@H]7O[C@@H](CO)[C@H](O)[C@@H](O)[C@@H]7O)[C@H](O)[C@H]6O[C@@H]6OC(CO)[C@@H](O)[C@H](O)[C@H]6O)[C@](C)(CO)[C@@H]5CC[C@]43C)[C@@H]2CC1(C)C` (stereo partly specified) [Escin]: the drug sensitivity score in the assay on Kuramochi amounted to 0.1 DSS; with OVCAR4, 0 DSS; in the assay with OVCAR3 it was 0.9 DSS.
Turning to `Cc1ccc(-c2cn3c4c(sc3n2)CCCC4)cc1` [Pifithrin-β (hydrobromide)], the drug sensitivity score in the assay on Kuramochi, in the assay with OVCAR4 and with OVCAR3 was 0 DSS in each case.
As to `O=C([O-])c1ccccc1O.[Na+]` [Sodium Salicylate], the drug sensitivity score with Kuramochi, in the assay with OVCAR4 and in the assay with OVCAR3 was 0 DSS throughout.
Consider `O=[N+]([O-])c1ccc(O)c2ncccc12` [Nitroxoline], for which the drug sensitivity score was 0 DSS in the assay on Kuramochi, 0.1 DSS in the assay with OVCAR4 and 0 DSS in the assay with OVCAR3.
As for `CCc1ccc(CCOc2ccc(CC3SC(=O)NC3=O)cc2)nc1` (stereo unspecified) [Pioglitazone], the drug sensitivity score in the assay on Kuramochi, with OVCAR4 and in the assay on OVCAR3 was 0 DSS in each case.
For `CC(C)[C@]12O[C@H]1[C@@H]1O[C@@]13[C@@]1(C)CCC4=C(COC4=O)[C@@H]1C[C@@H]1O[C@@]13C2=O` [Triptonide], the drug sensitivity score in the assay with Kuramochi came to 0.1 DSS; in the assay with OVCAR4, 2.1 DSS; in the assay with OVCAR3, 0 DSS.
Take `C#CCN[C@@H]1CCc2ccccc21` [Rasagiline (mesylate)]: the drug sensitivity score with Kuramochi, in the assay on OVCAR4 and in the assay with OVCAR3 was 0 DSS each time.
Consider `CN(C)CCCCC(=O)Nc1ccc(NC(=S)NC(=O)c2ccc(C(C)(C)C)cc2)cc1` [Tenovin-6], for which the drug sensitivity score in the assay with Kuramochi, in the assay with OVCAR4 and in the assay on OVCAR3 was 0 DSS in each case.
As for `Cc1ccc(C(=O)Cn2c3c(sc2=N)CCCC3)cc1` [Pifithrin-α (hydrobromide)], the drug sensitivity score in the assay on Kuramochi, in the assay with OVCAR4 and in the assay with OVCAR3 was 0 DSS in each case.
Take `O=C(O)[C@H]1O[C@@H](Oc2cc3oc(-c4ccccc4)cc(=O)c3c(O)c2O)[C@H](O)[C@@H](O)[C@@H]1O` [Baicalin]: the drug sensitivity score in the assay with Kuramochi, in the assay on OVCAR4 and in the assay on OVCAR3 was 0 DSS in each case.
Consider `CNC(=O)c1ccc(-c2cnc3ncc(Cc4ccc5ncccc5c4)n3n2)cc1F` [Capmatinib], for which the drug sensitivity score in the assay on Kuramochi, with OVCAR4 and in the assay with OVCAR3 was 0 DSS throughout.
In the case of `NS(=O)(=O)C#Cc1ccccc1` [Pifithrin-μ], the drug sensitivity score was found to be 2.8 DSS with Kuramochi, 2.4 DSS with OVCAR4 and 2.3 DSS with OVCAR3.
The like results for `CCN(CC)C(=S)SSC(=S)N(CC)CC` [Disulfiram] were, in that order, 0 DSS, 0 DSS and 0 DSS.
`Cc1ccc(C(=O)Nc2ccc(S(=O)(=O)O)c3cc(S(=O)(=O)O)cc(S(=O)(=O)O)c23)cc1NC(=O)c1cccc(NC(=O)Nc2cccc(C(=O)Nc3cc(C(=O)Nc4ccc(S(=O)(=O)O)c5cc(S(=O)(=O)O)cc(S(=O)(=O)O)c45)ccc3C)c2)c1` [Suramin (sodium salt)]: the drug sensitivity score in the assay with Kuramochi, in the assay with OVCAR4 and in the assay with OVCAR3 was 0 DSS each time.
Take `COc1ccc(/C=C/c2nc(NCCCN(C)C)c3ccccc3n2)cc1`: the drug sensitivity score in the assay with Kuramochi, in the assay on OVCAR4 and with OVCAR3 was 0 DSS in each case.
With `CC(=O)Oc1ccccc1C(=O)Nc1ncc([N+](=O)[O-])s1` [Nitazoxanide], the drug sensitivity score with Kuramochi, in the assay on OVCAR4 and in the assay with OVCAR3 was 0 DSS in each case.
Consider `CCn1c2ccccc2c2cc(CNC)ccc21` [PhiKan 083], for which the drug sensitivity score in the assay on Kuramochi was 0.4 DSS; in the assay with OVCAR4 it was 0 DSS; with OVCAR3, 0 DSS.
In the case of `NCC(=O)CCC(=O)O` [5-Aminolevulinic acid (hydrochloride)], the figures for the drug sensitivity score with Kuramochi, with OVCAR4 and in the assay with OVCAR3 were 0 DSS, 0 DSS and 2.5 DSS, respectively.
As to `CCCCc1oc2ccc(NS(C)(=O)=O)cc2c1C(=O)c1ccc(OCCCN(CCCC)CCCC)cc1` [Dronedarone (Hydrochloride)], the values for the drug sensitivity score in the assay on Kuramochi, with OVCAR4 and in the assay with OVCAR3 were 0.3 DSS, 2.1 DSS and 0.8 DSS, respectively.
On to `Cc1cc(=O)[nH]c(=S)[nH]1` [Methylthiouracil], for which the drug sensitivity score in the assay with Kuramochi, with OVCAR4 and in the assay on OVCAR3 was 0 DSS each time.
Regarding `COC(=O)C1=C(C)NC(C)=C(C(=O)OC)C1c1ccccc1[N+](=O)[O-]` [Nifedipine], the drug sensitivity score with Kuramochi, in the assay on OVCAR4 and with OVCAR3 was 0 DSS in each case.
As to `CNC(=O)c1ccc(N2C(=S)N(c3ccc(C#N)c(C(F)(F)F)c3)C(=O)C2(C)C)cc1F` [Enzalutamide], the drug sensitivity score in the assay on Kuramochi, in the assay on OVCAR4 and in the assay on OVCAR3 was 0 DSS in each case.
On to `CN(C)C(=O)C(CCN1CCC(O)(c2ccc(Cl)cc2)CC1)(c1ccccc1)c1ccccc1` [Loperamide (hydrochloride)], for which the drug sensitivity score in the assay on Kuramochi, in the assay on OVCAR4 and in the assay on OVCAR3 was 0 DSS in each case.
Consider `CCOc1cc([C@@H](CS(C)(=O)=O)N2C(=O)c3cccc(NC(C)=O)c3C2=O)ccc1OC` [Apremilast], for which the drug sensitivity score in the assay on Kuramochi turned out to be 0.1 DSS; with OVCAR4, 0 DSS; in the assay with OVCAR3, 0.2 DSS.
The like results for `CNC(=O)c1cc(Oc2ccc(NC(=O)Nc3ccc(Cl)c(C(F)(F)F)c3)c(F)c2)ccn1` [Regorafenib] were, in that order, 0 DSS, 1.7 DSS and 0 DSS.
In the same order, the values of `COc1cc2c3cc1Oc1c(OC)c(OC)cc4c1[C@@H](Cc1ccc(O)c(c1)Oc1ccc(cc1)C[C@@H]3N(C)CC2)N(C)CC4` [Berbamine] are 0 DSS, 0 DSS and 0 DSS.
In the same order, the values of `O=c1[nH]c(=O)n([C@H]2C[C@H](O)[C@@H](CO)O2)cc1C(F)(F)F` [Trifluridine] are 0 DSS, 0 DSS and 0 DSS.
Consider `C=CCN1C[C@H](C(=O)N(CCCN(C)C)C(=O)NCC)C[C@@H]2c3cccc4[nH]cc(c34)C[C@H]21` [Cabergoline], for which the drug sensitivity score in the assay on Kuramochi, with OVCAR4 and with OVCAR3 was 0 DSS each time.
In the case of `COC1=C[C@@H]2[C@@H]3Cc4ccc(OC)c(O)c4[C@]2(CCN3C)CC1=O` [Sinomenine], the drug sensitivity score with Kuramochi, in the assay on OVCAR4 and in the assay with OVCAR3 was 0 DSS each time.
